In the supplement of paper PMC10849652 one finds log2 fold change data, which are given here for 19 targets.

The chains behind the UniProt entries cited, without tags or fusion partners. Where a name states a change or a piece, a line headed by the entry shows the natural chain unless it says otherwise.
UniProt Q12797: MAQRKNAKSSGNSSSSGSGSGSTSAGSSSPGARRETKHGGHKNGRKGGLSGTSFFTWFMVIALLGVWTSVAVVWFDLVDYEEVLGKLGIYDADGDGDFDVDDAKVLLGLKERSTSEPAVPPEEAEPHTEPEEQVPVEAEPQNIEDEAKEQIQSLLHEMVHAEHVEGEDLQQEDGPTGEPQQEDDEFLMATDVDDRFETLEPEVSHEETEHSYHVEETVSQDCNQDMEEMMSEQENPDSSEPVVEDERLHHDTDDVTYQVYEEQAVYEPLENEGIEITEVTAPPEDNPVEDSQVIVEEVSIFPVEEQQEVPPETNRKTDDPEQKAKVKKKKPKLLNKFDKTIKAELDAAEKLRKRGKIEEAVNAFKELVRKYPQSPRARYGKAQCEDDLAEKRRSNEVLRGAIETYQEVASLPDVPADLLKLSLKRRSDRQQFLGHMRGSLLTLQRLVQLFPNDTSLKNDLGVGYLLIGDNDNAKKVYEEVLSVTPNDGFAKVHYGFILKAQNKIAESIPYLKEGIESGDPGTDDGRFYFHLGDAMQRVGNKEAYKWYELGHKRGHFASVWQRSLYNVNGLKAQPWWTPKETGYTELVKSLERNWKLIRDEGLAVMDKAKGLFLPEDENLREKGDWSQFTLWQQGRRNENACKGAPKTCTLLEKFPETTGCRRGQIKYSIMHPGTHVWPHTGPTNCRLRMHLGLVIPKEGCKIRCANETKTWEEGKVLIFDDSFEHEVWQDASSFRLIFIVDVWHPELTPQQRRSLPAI
UniProt Q8WYN0: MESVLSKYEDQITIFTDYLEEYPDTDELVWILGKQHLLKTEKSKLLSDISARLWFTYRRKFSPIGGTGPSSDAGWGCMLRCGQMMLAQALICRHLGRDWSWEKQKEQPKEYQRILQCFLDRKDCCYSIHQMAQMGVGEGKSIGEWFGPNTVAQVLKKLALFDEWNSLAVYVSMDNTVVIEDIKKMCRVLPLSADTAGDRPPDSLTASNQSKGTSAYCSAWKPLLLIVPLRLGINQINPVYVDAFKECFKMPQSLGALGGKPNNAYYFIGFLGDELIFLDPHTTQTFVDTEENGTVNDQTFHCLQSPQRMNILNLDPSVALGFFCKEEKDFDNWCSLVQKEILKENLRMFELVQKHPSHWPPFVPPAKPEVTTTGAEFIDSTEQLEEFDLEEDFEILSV
UniProt P15289: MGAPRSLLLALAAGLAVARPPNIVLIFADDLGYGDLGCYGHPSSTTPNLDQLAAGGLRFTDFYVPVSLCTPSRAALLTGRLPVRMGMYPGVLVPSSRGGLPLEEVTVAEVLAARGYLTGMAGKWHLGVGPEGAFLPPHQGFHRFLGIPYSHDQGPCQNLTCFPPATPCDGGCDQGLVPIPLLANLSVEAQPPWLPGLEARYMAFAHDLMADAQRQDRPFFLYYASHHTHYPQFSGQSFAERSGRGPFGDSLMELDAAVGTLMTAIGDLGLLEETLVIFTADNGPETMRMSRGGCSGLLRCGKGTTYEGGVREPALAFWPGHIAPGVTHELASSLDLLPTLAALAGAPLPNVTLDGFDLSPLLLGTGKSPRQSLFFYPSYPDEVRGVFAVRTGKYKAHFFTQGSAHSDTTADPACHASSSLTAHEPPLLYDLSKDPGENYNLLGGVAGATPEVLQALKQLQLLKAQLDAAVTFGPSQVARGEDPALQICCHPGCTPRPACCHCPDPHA
UniProt P98196: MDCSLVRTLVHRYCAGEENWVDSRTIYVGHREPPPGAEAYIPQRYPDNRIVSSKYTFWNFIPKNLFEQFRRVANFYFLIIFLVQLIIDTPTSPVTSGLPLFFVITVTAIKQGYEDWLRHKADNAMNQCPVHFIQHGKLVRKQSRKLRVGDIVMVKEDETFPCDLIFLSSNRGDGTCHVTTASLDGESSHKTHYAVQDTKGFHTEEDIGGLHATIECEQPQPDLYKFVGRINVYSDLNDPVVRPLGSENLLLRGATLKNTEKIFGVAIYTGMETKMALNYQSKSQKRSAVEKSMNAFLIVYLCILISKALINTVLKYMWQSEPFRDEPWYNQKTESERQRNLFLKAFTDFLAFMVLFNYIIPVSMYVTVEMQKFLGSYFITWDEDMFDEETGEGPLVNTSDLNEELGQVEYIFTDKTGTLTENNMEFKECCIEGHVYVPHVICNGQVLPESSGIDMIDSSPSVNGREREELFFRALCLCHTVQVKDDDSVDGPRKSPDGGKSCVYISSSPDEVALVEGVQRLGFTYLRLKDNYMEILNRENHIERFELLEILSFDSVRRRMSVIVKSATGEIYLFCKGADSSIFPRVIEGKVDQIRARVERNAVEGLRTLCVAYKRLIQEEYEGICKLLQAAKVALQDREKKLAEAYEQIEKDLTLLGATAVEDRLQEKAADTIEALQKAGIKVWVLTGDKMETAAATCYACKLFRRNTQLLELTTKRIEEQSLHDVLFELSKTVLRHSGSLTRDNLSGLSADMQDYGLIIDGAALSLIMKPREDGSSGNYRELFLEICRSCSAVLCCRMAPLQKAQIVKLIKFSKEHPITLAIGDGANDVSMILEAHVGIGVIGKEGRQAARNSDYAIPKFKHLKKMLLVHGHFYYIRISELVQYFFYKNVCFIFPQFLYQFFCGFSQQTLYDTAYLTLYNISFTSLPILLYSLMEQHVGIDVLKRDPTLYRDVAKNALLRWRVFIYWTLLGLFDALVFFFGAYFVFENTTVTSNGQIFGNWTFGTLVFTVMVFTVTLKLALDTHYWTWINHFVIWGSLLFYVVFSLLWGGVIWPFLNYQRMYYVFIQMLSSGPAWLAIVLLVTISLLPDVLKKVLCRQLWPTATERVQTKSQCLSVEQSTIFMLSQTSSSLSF
UniProt P49407: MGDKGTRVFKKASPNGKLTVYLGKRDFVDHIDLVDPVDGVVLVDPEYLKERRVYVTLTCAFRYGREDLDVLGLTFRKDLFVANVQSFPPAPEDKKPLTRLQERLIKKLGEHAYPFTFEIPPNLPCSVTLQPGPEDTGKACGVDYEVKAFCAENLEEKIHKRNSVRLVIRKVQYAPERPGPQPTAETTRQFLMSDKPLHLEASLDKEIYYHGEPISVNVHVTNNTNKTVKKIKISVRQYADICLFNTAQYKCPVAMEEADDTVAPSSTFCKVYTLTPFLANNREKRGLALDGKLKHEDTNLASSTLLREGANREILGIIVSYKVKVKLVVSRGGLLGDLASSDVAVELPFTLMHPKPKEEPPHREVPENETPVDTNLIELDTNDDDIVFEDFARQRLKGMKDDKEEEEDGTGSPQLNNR
UniProt Q9H0F7: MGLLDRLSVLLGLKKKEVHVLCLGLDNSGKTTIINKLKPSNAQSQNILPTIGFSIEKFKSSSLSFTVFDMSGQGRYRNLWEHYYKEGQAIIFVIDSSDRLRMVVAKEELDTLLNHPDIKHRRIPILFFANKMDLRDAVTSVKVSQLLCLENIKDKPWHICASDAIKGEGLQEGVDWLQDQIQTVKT
UniProt P98198: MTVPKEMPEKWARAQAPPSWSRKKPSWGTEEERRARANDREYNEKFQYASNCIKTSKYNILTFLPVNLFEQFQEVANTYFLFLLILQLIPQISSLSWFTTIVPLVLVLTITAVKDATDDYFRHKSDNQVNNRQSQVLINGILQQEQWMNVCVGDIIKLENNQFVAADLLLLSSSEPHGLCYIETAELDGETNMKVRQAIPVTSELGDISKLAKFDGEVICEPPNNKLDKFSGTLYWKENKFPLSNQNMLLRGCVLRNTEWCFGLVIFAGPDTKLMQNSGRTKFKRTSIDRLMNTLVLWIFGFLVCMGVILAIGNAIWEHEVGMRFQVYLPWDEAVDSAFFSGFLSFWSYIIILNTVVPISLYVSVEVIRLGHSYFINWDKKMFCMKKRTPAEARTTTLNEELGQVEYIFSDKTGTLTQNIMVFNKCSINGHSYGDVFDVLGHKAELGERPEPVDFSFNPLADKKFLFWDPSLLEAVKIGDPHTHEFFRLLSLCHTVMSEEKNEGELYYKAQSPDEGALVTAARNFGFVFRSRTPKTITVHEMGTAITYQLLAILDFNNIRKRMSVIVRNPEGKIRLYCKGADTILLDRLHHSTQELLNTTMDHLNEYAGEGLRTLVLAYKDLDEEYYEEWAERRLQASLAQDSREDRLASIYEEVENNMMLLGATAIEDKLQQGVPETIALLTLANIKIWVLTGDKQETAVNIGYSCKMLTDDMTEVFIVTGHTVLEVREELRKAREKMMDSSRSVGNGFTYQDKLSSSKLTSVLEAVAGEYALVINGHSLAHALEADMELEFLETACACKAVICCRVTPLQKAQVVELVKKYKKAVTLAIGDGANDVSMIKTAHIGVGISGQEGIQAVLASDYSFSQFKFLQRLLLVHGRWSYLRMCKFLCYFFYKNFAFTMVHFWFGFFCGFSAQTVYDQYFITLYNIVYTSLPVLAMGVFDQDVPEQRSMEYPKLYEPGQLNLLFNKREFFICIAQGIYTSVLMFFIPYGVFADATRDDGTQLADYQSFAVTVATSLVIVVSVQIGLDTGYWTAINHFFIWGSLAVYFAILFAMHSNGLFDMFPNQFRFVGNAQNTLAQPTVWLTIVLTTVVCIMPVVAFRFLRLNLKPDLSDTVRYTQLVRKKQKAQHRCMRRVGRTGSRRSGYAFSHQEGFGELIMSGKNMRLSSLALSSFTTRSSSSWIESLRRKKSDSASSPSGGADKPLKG
UniProt Q76L83: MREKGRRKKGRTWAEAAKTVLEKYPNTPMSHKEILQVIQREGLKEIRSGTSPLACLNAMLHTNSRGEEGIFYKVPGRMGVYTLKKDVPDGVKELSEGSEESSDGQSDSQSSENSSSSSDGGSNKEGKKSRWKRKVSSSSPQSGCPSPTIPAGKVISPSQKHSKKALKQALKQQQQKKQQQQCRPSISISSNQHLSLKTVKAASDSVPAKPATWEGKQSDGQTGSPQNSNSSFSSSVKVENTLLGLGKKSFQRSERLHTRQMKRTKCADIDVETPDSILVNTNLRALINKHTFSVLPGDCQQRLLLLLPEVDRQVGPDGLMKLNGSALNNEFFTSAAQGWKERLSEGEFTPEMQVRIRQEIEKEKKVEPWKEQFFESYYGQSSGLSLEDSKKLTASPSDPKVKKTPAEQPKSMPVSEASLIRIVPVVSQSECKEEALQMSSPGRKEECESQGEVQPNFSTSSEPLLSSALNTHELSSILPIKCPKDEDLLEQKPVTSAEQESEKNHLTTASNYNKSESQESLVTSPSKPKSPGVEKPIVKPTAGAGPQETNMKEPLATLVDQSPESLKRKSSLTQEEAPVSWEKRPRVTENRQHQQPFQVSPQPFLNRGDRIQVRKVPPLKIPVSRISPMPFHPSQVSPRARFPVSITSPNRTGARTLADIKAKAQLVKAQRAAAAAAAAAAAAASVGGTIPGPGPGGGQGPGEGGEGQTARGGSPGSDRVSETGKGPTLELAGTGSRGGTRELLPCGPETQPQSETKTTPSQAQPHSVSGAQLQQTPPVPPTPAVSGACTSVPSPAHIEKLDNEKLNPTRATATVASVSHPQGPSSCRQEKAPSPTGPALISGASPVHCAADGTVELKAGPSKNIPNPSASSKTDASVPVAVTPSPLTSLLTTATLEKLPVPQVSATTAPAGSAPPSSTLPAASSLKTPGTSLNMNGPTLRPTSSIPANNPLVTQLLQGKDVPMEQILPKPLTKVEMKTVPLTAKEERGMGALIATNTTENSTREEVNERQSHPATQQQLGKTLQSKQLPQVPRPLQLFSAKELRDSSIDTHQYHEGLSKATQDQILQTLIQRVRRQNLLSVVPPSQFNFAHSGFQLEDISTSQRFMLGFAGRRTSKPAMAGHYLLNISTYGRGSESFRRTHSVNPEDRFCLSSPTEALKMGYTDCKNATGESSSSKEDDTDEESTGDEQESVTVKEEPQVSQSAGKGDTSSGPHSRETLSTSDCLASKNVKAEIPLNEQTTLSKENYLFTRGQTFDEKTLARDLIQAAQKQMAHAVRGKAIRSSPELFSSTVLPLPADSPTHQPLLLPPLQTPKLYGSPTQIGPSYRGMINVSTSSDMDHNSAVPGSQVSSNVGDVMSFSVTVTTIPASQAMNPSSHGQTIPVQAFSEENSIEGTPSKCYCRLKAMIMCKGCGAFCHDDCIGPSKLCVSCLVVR
UniProt O95260: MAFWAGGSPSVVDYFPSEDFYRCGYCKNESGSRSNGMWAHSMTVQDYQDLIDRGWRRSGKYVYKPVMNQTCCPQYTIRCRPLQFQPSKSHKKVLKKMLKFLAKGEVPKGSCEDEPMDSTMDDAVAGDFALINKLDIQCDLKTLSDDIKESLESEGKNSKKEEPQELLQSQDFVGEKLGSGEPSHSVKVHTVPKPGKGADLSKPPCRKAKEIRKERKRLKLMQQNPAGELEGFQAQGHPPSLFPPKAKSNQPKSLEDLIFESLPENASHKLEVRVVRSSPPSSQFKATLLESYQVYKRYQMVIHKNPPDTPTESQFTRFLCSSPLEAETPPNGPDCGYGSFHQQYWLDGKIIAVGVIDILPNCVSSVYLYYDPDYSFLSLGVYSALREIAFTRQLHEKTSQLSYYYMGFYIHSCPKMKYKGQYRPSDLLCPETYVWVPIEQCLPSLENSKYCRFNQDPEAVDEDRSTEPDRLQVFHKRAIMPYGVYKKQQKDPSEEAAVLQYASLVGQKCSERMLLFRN

Some of the results follow.

What all share (assay): log2 fold change, soluble protein after heating vs DMSO (PISA); higher = thermal stabilisation; K562 cells, 10 uM, 30 min; active = over 0.2 and 3.5 SD of the protein, either way, in both replicates (recomputed)
Compound in experiment [1]: NC(=O)Nc1cc(-c2cccc(F)c2)sc1C(=O)N[C@H]1CCCNC1
A digest of the protocol: (§1)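 Quantification of soluble protein used TMTpro 16plex LC-MS/MS, with channel sums equalised. Samples were the supernatant after 21,000xg for 90 min of pooled aliquots from K562 cells (2×10^6 cells/mL) treated with 10 μM compound for 30 min, heated for 3 min over 48°C-58°C, and extracted in PBS with 0.5% NP-40 at 4°C. Values, from duplicates, describe thermal stability against control samples on a log2 fold-change scale.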

Compound in experiment [2]: NC(=O)c1cnc(N[C@@H]2CCCC[C@@H]2N)nc1Nc1cccc(-n2nccn2)c1
An outline of the steps: as §1

Compound in experiment [3]: NC1(c2ccc(-c3nc4ccn5c(=O)[nH]nc5c4cc3-c3ccccc3)cc2)CCC1
A digest of the protocol:
as §1

Compound in experiment [4]: NCC(=O)Nc1ccc(-n2nc(C(F)(F)F)cc2-c2ccc3c(ccc4ccccc43)c2)cc1
An outline of the steps:
as §1

Compound in another experiment: Nc1ccccc1NC(=O)c1ccc(CNC(=O)OCc2cccnc2)cc1 [entinostat]
An outline of the steps: as §1

Compound in a further experiment: O=C(O)c1ccc2c(c1)nc(Nc1cccc(Cl)c1)c1ccncc12 [silmitasertib]
A digest of the protocol: as §1

Compound in experiment [5]: O=C1NC(=O)C(c2cnc3ccccn23)=C1c1cn2c3c(cc(F)cc13)CN(C(=O)N1CCCCC1)CC2
An outline of the steps:
as §1

Compound in another experiment: O=C(CCCCCCNC(=O)c1cnc(N(c2ccccc2)c2ccccc2Cl)nc1)NO [citarinostat]
A digest of the protocol:
as §1

Compound in experiment [6]: c1cc(OCCN2CCCCC2)cc(-c2n[nH]c3ccc(-c4nnc[nH]4)cc23)c1
An outline of the steps: as §1

Compound in another experiment: O=C(CCCCCCC(=O)Nc1ccccc1)NO [vorinostat]
An outline of the steps: as §1

ATF7 isoform 6 (UniProt P17544): the log2 fold change was inactive: -0.113 in [1]; inactive: 0.138 in experiment [2]; inactive: -0.123 in experiment [3]; inactive: 0.268 in [4]; inactive: -0.045 with entinostat; inactive: 0.067 with silmitasertib. Also, in [5], the log2 fold change is inactive: -0.044.

ATF3 (UniProt P18847): the log2 fold change in experiment [1] was inactive: -0.2; in experiment [2], inactive: -0.061; in [4], inactive: 0.003; with entinostat, inactive: -0.018; with citarinostat, inactive: 0.126; in experiment [5], inactive: -0.03. In addition, the log2 fold change in experiment [6] is inactive: -0.15.

For ATP1B1 (UniProt P05026), the log2 fold change in experiment [1] is inactive: 0.05; in experiment [2], inactive: 0.117; in experiment [3], inactive: -0.04; in experiment [4], inactive: 0.035; with entinostat, inactive: -0.134; with vorinostat it was inactive: -0.041. The log2 fold change was inactive: -0.071 with citarinostat, inactive: 0.037 in the experiment with silmitasertib and inactive: 0.035 in experiment [6].

Turning to ASPH (UniProt Q12797), the log2 fold change in experiment [1] was inactive: 0.032; in experiment [2], inactive: 0; in [3], inactive: -0.012; in experiment [4] it was inactive: 0.017; with entinostat it was inactive: -0.041; with vorinostat, inactive: 0.002. The log2 fold change in the experiment with citarinostat is inactive: -0.019; with silmitasertib it was inactive: 0.021; in [5] it was inactive: 0.019; in experiment [6] it was inactive: -0.036.

For the target ATP7A isoform 3 (UniProt Q04656), the log2 fold change in experiment [1] is inactive: -0.021; in [2], inactive: 0.05; in experiment [3], inactive: 0.046; in [4], inactive: -0.017; in the experiment with entinostat, inactive: 0.006; with vorinostat, inactive: -0.039. Moreover, the log2 fold change was inactive: 0.022 with citarinostat, inactive: 0.073 with silmitasertib, inactive: -0.063 in [5] and inactive: -0.009 in [6].

As for ATG4A (UniProt Q8WYN0), the log2 fold change in [4] is inactive: -0.058.

As to ARSA (UniProt P15289), the log2 fold change in [1] is inactive: 0.055; in [2], inactive: -0.058; in [3] it was inactive: 0.058; in experiment [4], inactive: 0; with entinostat, inactive: -0.026; with vorinostat, inactive: -0.018. The log2 fold change is inactive: -0.002 with silmitasertib and inactive: -0.051 in [5].

Take ASCC2 (UniProt Q9H1I8): the log2 fold change in experiment [1] was inactive: -0.12; in experiment [3], inactive: 0.126; in experiment [4], inactive: -0.171; with entinostat it was inactive: 0.063; in the experiment with citarinostat it was inactive: 0.028; with silmitasertib it was inactive: 0.2. Further, the log2 fold change is inactive: 0.107 in experiment [5] and inactive: 0.041 in experiment [6].

Turning to ATP2B2 (UniProt Q01814), the log2 fold change was inactive: -0.316 in experiment [1]; inactive: 0.247 in experiment [2]; inactive: 0.036 in experiment [4]; inactive: 0.175 with entinostat; inactive: -0.038 with vorinostat.

For the target ATP11A (UniProt P98196), the log2 fold change was inactive: -0.034 in experiment [1]; inactive: 0.065 in experiment [2]; inactive: -0.001 in experiment [3]; inactive: -0.054 in experiment [4]; inactive: -0.025 in the experiment with entinostat; inactive: -0.08 with vorinostat. In addition, the log2 fold change with citarinostat is inactive: -0.154; with silmitasertib, inactive: 0.065; in experiment [5] it was inactive: -0.024; in experiment [6], active: -0.32.

As for ATG4C (UniProt Q96DT6), the log2 fold change was inactive: 0.01 in [1]; inactive: -0.084 in [3]; inactive: 0.03 in [4]; inactive: 0.075 with entinostat; inactive: 0.159 with vorinostat; inactive: -0.003 with citarinostat. Moreover, the log2 fold change with silmitasertib is inactive: 0.157; in [5], inactive: -0.018; in [6] it was inactive: 0.224.

Take ARRB1 isoform 2 (UniProt P49407): the log2 fold change in [2] was inactive: 0.068; in experiment [3], inactive: 0.024; in experiment [4], inactive: -0.079; with vorinostat, inactive: -0.027; with citarinostat, inactive: 0.007; with silmitasertib, inactive: 0.058. Moreover, the log2 fold change in experiment [6] was inactive: 0.008.

For ARL6 isoform 2 (UniProt Q9H0F7), the log2 fold change in [4] is inactive: -0.172.

As for ARMC8 isoform 6 (UniProt Q8IUR7), the figures for the log2 fold change in experiment [2] and in experiment [4] were inactive: -0.023 and inactive: 0.025, respectively.

Take ATP8B2 isoform 3 (UniProt P98198): the log2 fold change in experiment [2] was inactive: -0.004; in experiment [4], inactive: -0.325.

In the case of ATP5F1B (UniProt F8W0P7), the log2 fold change is inactive: -0.151 in experiment [1]; inactive: -0.187 in experiment [2]; inactive: -0.086 in experiment [3]; inactive: -0.119 in the experiment with entinostat; inactive: -0.026 in the experiment with silmitasertib; inactive: 0.155 in [5].

Regarding ATG10 (UniProt Q9H0Y0), the log2 fold change in [4] is inactive: -0.035; with vorinostat it was inactive: 0.042; in [5], inactive: -0.009.

For ASXL2 (UniProt Q76L83), the log2 fold change in [2] was inactive: 0.062.

Regarding ATE1 (UniProt O95260), the log2 fold change in experiment [2] was inactive: -0.084; in experiment [4], inactive: -0.066; with citarinostat it was inactive: -0.069; in [5] it was inactive: -0.148; in experiment [6], inactive: 0.225.
